From the supplement of paper PMC6078165
Values are relative to the signal before dosing, not to a vehicle control; the signal also falls without drug.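 Labels refer to human fibroblasts, largely primary: uterine (C12385, HUF), lung (H6013), bone (Hs27A), adrenal (HADF), skin (WS1), plus mammary HMF and breast cancer-associated Hs343T. Cancer lines are basal-like or mesenchymal-like triple-negative breast cancer. The paper counts as hits responses shifting over 3x the replicate standard deviation. The tissue of the other fibroblasts is not given here.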

System: MDAMB436
Assay: relative JC-1 red fluorescence (viability) vs pre-drug, coculture with fibroblast (fraction); higher = more viable cancer cells
Description: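 JC-1 labelled TNBC cells cocultured 1:1 (1,500 cells each) with CellTrace Violet stained primary or stromal fibroblasts in 384-well plates in FluoroBrite medium, treated with one of 42 anticancer drugs at 0.1, 1, 10 or 100 uM. JC-1 red fluorescence (mitochondrial integrity in cancer cells only) was read by plate reader every 8 h for 72 h. Values are normalised to each well's pre-drug value. The stock of one drug was tenfold lower, so its dose labels may be too high.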

CN(Cc1cnc2nc(N)nc(N)c2n1)c1ccc(C(=O)N[C@@H](CCC(=O)O)C(=O)O)cc1 [Methotrexate]
relative JC-1 red fluorescence
Settings	8 h	16 h	24 h	32 h	40 h	48 h	56 h	64 h	72 h
0.1 µM, coculture fibroblast: C12385	0.7977	0.675	0.658	0.579	0.531	0.514	0.503	0.493	0.496
0.1 µM, coculture fibroblast: H6013	0.856	0.7207	0.708	0.706	0.695	0.725	0.691	0.689	0.669
0.1 µM, coculture fibroblast: H6019	0.69931	0.632	0.616	0.547	0.524	0.511	0.4864	0.471	0.4556
0.1 µM, coculture fibroblast: H6076	0.738	0.674	0.667	0.641	0.625	0.615	0.6421	0.655	0.66
0.1 µM, coculture fibroblast: H6231	0.753	0.6701	0.6535	0.572	0.554	0.517	0.5	0.485	0.469
0.1 µM, coculture fibroblast: HADF	0.81006	0.726	0.712	0.679	0.672	0.704	0.643	0.645	0.621
0.1 µM, coculture fibroblast: HCFa	0.845	0.776	0.732	0.726	0.667	0.671	0.621	0.627	0.591
0.1 µM, coculture fibroblast: HCPF	0.759	0.664	0.653	0.5839	0.571	0.537	0.522	0.508	0.493
0.1 µM, coculture fibroblast: HHSteC	0.836	0.764	0.748	0.721	0.72	0.743	0.689	0.68	0.635
0.1 µM, coculture fibroblast: HMF	0.725	0.667	0.66	0.617	0.605	0.572	0.582	0.565	0.565
0.1 µM, coculture fibroblast: HPFa	0.8528	0.767	0.73	0.682	0.666	0.682	0.616	0.613	0.575
0.1 µM, coculture fibroblast: HUF	0.8335	0.7108	0.6711	0.5995	0.54161	0.516	0.4948	0.482	0.476
0.1 µM, coculture fibroblast: Hs5	0.766	0.666	0.664	0.6119	0.6058	0.5713	0.5924	0.573	0.5882
0.1 µM, coculture fibroblast: Hs27A	0.7968	0.715	0.695	0.672	0.651	0.722	0.646	0.646	0.592
0.1 µM, coculture fibroblast: Hs343T	0.697	0.638	0.617	0.564	0.53858	0.50886	0.5056	0.49863	0.4963
0.1 µM, coculture fibroblast: WS1	0.78669	0.667	0.642	0.559	0.521	0.506	0.495	0.487	0.481
1 µM, coculture fibroblast: C12385	0.826	0.686	0.668	0.592	0.554	0.533	0.533	0.524	0.532
1 µM, coculture fibroblast: H6013	0.8406	0.7083	0.7003	0.6941	0.6924	0.727	0.702	0.705	0.683
1 µM, coculture fibroblast: H6019	0.737	0.658	0.63	0.552	0.519	0.5083	0.479	0.462	0.447
1 µM, coculture fibroblast: H6076	0.759	0.641	0.665	0.635	0.631	0.631	0.6709	0.693	0.705
1 µM, coculture fibroblast: H6231	0.778	0.693	0.653	0.5771	0.547	0.514	0.506	0.502	0.496
1 µM, coculture fibroblast: HADF	0.843	0.758	0.711	0.68	0.667	0.694	0.636	0.642	0.617
1 µM, coculture fibroblast: HCFa	0.8023	0.6921	0.659	0.622	0.594	0.607	0.543	0.537	0.483
1 µM, coculture fibroblast: HCPF	0.812	0.709	0.72	0.653	0.635	0.606	0.59081	0.571	0.555
1 µM, coculture fibroblast: HHSteC	0.833	0.75	0.722	0.691	0.697	0.707	0.652	0.635	0.597
1 µM, coculture fibroblast: HMF	0.7643	0.6252	0.6152	0.5764	0.557	0.526	0.528	0.523	0.5135
1 µM, coculture fibroblast: HPFa	0.9137	0.813	0.7764	0.7378	0.7276	0.7384	0.6739	0.6708	0.626
1 µM, coculture fibroblast: HUF	0.83575	0.71	0.665	0.577	0.519	0.486	0.465	0.447	0.438
1 µM, coculture fibroblast: Hs5	0.799	0.7	0.6803	0.6232	0.604	0.568	0.587	0.573	0.579
1 µM, coculture fibroblast: Hs27A	0.799	0.704	0.688	0.667	0.657	0.736	0.651	0.656	0.609
1 µM, coculture fibroblast: Hs343T	0.776	0.644	0.619	0.579	0.551	0.52	0.5148	0.50197	0.5036
1 µM, coculture fibroblast: WS1	0.792	0.648	0.6287	0.546	0.506	0.498	0.487	0.476	0.48
10 µM, coculture fibroblast: C12385	0.8348	0.7274	0.713	0.63	0.587	0.569	0.547	0.535	0.535
10 µM, coculture fibroblast: H6013	0.893	0.768	0.795	0.806	0.806	0.852	0.833	0.83	0.816
10 µM, coculture fibroblast: H6019	0.741	0.683	0.667	0.592	0.553	0.541	0.507	0.487	0.466
10 µM, coculture fibroblast: H6076	0.7466	0.6	0.606	0.564	0.548	0.535	0.5437	0.5474	0.55089
10 µM, coculture fibroblast: H6231	0.718	0.647	0.567	0.516	0.491	0.459	0.455	0.437	0.431
10 µM, coculture fibroblast: HADF	0.81857	0.736	0.706	0.661	0.633	0.658	0.59415	0.5962	0.555
10 µM, coculture fibroblast: HCFa	0.795	0.695	0.674	0.641	0.6197	0.641	0.591	0.596	0.556
10 µM, coculture fibroblast: HCPF	0.71889	0.59	0.5685	0.502	0.488	0.453	0.4393	0.425	0.4231
10 µM, coculture fibroblast: HHSteC	0.86	0.815	0.817	0.8	0.811	0.826	0.79	0.789	0.748
10 µM, coculture fibroblast: HMF	0.721	0.554	0.539	0.499	0.482	0.451	0.465	0.455	0.467
10 µM, coculture fibroblast: HPFa	0.8917	0.8	0.7866	0.7439	0.7401	0.76	0.6972	0.696	0.6507
10 µM, coculture fibroblast: HUF	0.826	0.7361	0.7267	0.651	0.606	0.578	0.561	0.556	0.561
10 µM, coculture fibroblast: Hs5	0.773	0.671	0.634	0.569	0.549	0.507	0.519	0.488	0.494
10 µM, coculture fibroblast: Hs27A	0.856	0.831	0.821	0.808	0.786	0.876	0.798	0.798	0.746
10 µM, coculture fibroblast: Hs343T	0.661	0.591	0.576	0.531	0.523	0.497	0.503	0.505	0.518
10 µM, coculture fibroblast: WS1	0.8045	0.7	0.672	0.598	0.555	0.543	0.521	0.501	0.5
100 µM, coculture fibroblast: C12385	0.7421	0.719	0.706	0.624	0.587	0.569	0.547	0.534	0.526
100 µM, coculture fibroblast: H6013	0.797	0.743	0.736	0.728	0.72	0.752	0.723	0.719	0.693
100 µM, coculture fibroblast: H6019	0.764	0.6962	0.696	0.635	0.605	0.596	0.577	0.555	0.537
100 µM, coculture fibroblast: H6076	0.794	0.609	0.579	0.533	0.504	0.481	0.4894	0.4906	0.486
100 µM, coculture fibroblast: H6231	0.724	0.625	0.5679	0.4979	0.46376	0.4287	0.426	0.4166	0.403
100 µM, coculture fibroblast: HADF	0.788	0.736	0.715	0.6813	0.679	0.7107	0.65009	0.65117	0.6141
100 µM, coculture fibroblast: HCFa	0.755	0.7098	0.663	0.617	0.585	0.603	0.541	0.539	0.489
100 µM, coculture fibroblast: HCPF	0.755	0.586	0.593	0.536	0.495	0.47	0.451	0.44333	0.435
100 µM, coculture fibroblast: HHSteC	0.833	0.769	0.735	0.693	0.687	0.698	0.646	0.64	0.6
100 µM, coculture fibroblast: HMF	0.768	0.552	0.537	0.475	0.447	0.421	0.423	0.42	0.428
100 µM, coculture fibroblast: HPFa	0.857	0.775	0.747	0.6913	0.693	0.716	0.655	0.645	0.602
100 µM, coculture fibroblast: HUF	0.831	0.731	0.72	0.639	0.595	0.58	0.558	0.551	0.555
100 µM, coculture fibroblast: Hs5	0.825	0.652	0.62	0.553	0.5187	0.4776	0.47917	0.4607	0.4544
100 µM, coculture fibroblast: Hs27A	0.811	0.703	0.672	0.645	0.62	0.685	0.602	0.602	0.537
100 µM, coculture fibroblast: Hs343T	0.78	0.604	0.544	0.49	0.455	0.414	0.407	0.395	0.4
100 µM, coculture fibroblast: WS1	0.761	0.692	0.652	0.576	0.537	0.524	0.5041	0.4786	0.4639
